Source: PMC3701000
These are yes or no findings as the source states them, for the method shown. Binding seen in cells or lysates may run through a third protein. Some results given as binding are weak or reduced against the parent protein; the word gives no strength.

The chains behind the UniProt entries cited, without tags or fusion partners.
UniProt Q96MX6: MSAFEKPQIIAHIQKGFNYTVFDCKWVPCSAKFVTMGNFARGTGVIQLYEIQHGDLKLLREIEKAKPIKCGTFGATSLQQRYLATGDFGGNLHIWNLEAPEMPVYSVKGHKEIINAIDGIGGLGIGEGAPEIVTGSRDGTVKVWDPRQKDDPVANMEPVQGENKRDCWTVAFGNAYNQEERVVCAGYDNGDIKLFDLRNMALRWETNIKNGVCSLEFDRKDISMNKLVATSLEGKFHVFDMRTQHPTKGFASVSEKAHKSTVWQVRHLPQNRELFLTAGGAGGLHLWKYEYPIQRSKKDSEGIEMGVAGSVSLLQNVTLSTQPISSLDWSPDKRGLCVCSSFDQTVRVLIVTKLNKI
UniProt Q96B26: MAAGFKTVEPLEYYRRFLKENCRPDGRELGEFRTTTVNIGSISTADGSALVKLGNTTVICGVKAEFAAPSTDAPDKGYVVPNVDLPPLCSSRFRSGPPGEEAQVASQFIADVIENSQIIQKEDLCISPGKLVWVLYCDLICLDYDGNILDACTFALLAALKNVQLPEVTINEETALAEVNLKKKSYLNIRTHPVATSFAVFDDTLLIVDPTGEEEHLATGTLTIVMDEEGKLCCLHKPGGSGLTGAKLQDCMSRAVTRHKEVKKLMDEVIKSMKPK

Columns and labels:
[1] = target: WD repeat protein 92 (WDR92), also known as Monad (human (endogenous in MDA-MB-231)) (UniProt Q96MX6); test: co-IP; Monad-OIP2 interaction in MDA-MB-231 cells with RNase treatment; data not shown
[2] = target: WD repeat protein 92 (WDR92), also known as Monad (human (endogenous in MDA-MB-231)) (UniProt Q96MX6); test: co-IP; MDA-MB-231 lysate (1% Triton X-100, 120 mM NaCl, 5 mM EDTA, 10% glycerol, 20 mM Tris pH 7.4) immunoprecipitated with anti-Monad antibody or control IgG, Protein G Sepharose; immunoblot with anti-OIP2

## OIP2 (exosome component; human homologue of yeast Rrp43) (from UniProt Q96B26 1-276)
[1]
  binding: binds
[2]
  binding: binds
